In patent US4487765 (dated 1984):

Experiment: general procedure: solution-phase peptide synthesis; DCC/HOBt
Conditions: acetate (Dowex 2X-8 exchange)

| Substance | step yield (late stage modification step) [%] | step yield (coupling step) [%] |
| --- | --- | --- |
| Z-Gln-Asn-Cys(Scm)-Pro-Arg-Gly-NH2 | 57 |  |
| Z-Gln-Asn-Cys(Trt)-Pro-Arg(Mbs)-Gly-NH2 |  | 80.8 |
| Trt-Cys(Trt)-Pro-Arg(Mbs)-Gly-NH2 |  | 96 |
| H-Cys(Trt)-Pro-Arg(Mbs)-Gly-NH2 | 89 |  |
